Screen size: about 360,000 compounds; about 9,100 (2.5%) were called active. Inconclusive results, whose numbers are uncertain, are shown with a selection of clear calls. Cut-off read from the data, not from the text of the source: active = max response below about -50%; inconclusive = no clear call, values can overlap the other calls; inactive = above that.
target: D(3) dopamine receptor (Homo sapiens) (UniProt P35462); test: qHTS of D3 Dopamine Receptor Antagonist: qHTS; conditions: D3R cells, DiscoveRx beta-arrestin luminescence, antagonist mode; active compounds read low
In short: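 Cells expressing the human receptor were seeded at 1500 cells/well, incubated overnight at 37 degrees C in 5% CO2, then exposed to library compounds with dopamine controls for 90 minutes at 37 degrees C before luminescent detection.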
% is set by controls: 0 for no effect and ±100 for the full control effect.

Sequences of proteins named here, by UniProt entry; tags and fusion partners are left off.
UniProt P35462, whole entry, looked up: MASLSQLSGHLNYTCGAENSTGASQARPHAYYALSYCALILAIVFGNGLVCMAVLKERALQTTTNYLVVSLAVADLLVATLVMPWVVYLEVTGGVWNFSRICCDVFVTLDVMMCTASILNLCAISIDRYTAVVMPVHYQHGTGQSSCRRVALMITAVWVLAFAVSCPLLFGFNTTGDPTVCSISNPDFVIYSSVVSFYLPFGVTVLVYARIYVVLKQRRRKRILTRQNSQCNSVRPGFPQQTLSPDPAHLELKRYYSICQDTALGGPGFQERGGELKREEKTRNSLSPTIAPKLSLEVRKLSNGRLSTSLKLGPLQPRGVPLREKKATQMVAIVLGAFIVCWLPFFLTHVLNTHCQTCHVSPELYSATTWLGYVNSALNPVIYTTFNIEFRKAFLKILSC

SMILES | max response, negative = inhibition
Cc1cccc(N2CCN(C(=O)c3cc4cc(F)ccc4[nH]3)CC2)c1C | inconclusive: -36.5%
CCN(CC)C(=O)CC(c1cc(OC)c(OC)c(OC)c1)c1c(O)cc(OC)cc1OC (stereo not given) | inconclusive: -32.4%
CCN(c1ccccc1)S(=O)(=O)c1ccc(C(C(=O)OC)C(=O)OC)c([N+](=O)[O-])c1 | inconclusive: -32.5%
CC(=O)c1cccc(NC(=S)NCc2ccccc2)c1 | inactive: -0.894%
O=C(NCC(c1cccs1)N1CCOCC1)c1cc(-c2ccccn2)nc2ccccc12 (stereo not given) | inconclusive: -37.3%
COc1ccc(/C=C/C(=O)C(C)(C)C)cc1OC | inactive: -8.36%
O=C(CCN1C(=O)C2CCCCC2C1=O)N1CCN(S(=O)(=O)c2cccc(F)c2)CC1 (stereo not given) | inconclusive: -42.2%
Cc1ccc(Cl)cc1N1CCN(S(=O)(=O)N2CCCCC2)CC1 | inconclusive: -38.3%
COc1ccc(NC(=O)c2cc(-c3ccc(C)o3)nc3ccccc23)cc1OC | inconclusive: -47.8%
CCCCCN(C(=O)CCC(=O)OCC(=O)N(CC#N)c1ccccc1)c1c(N)n(CCCC)c(=O)[nH]c1=O | active: -54.3%
C#CCn1cc(/C=N/NC(=O)c2cc3ccccc3o2)c2ccccc21 | inconclusive: -37.6%
O=C1NC(c2cccc3ccccc23)Nc2ccc(Cl)cc21 (stereo not given) | inactive: 0%
Clc1ccccc1CSc1nc2ccncc2[nH]1 | inactive: 3.77%
CCC1CCCCN1CCCNC(=O)c1ccc2c(c1)N(Cc1ccc(F)cc1)C(=O)c1ccccc1S2=O (stereo not given) | inconclusive: -41.2%
S=C(c1ccc(-c2ccccc2Cl)o1)N1CCOCC1 | inactive: 12.7%
Cc1ccc(C(c2nnnn2Cc2cccs2)N2CCN(Cc3ccc4c(c3)OCO4)CC2)cc1 (stereo not given) | active: -53.1%
CC(=O)Nc1cccc(-c2ccnc3c2CC(C(=O)Nc2ccc(Cl)cc2)O3)c1 (stereo not given) | inactive: -28.6%
O=C(NCCSc1c[nH]c2ccccc12)c1c(F)cccc1F | inconclusive: -32.6%
CN1CCc2c(sc3nc(SCC(N)=O)n(-c4ccc(Cl)cc4)c(=O)c23)C1 | inactive: -3.79%
COC(=O)c1ccc(C23CC4(C2)[C@H](CN(C)[C@@H]4c2ccccc2)C3c2ccccc2)cc1 (stereo not given in full) | inconclusive: -33.7%
O=C(O)c1ccccc1S(=O)(=O)CC(=O)N1CCCCC1 | inactive: -6.24%
CCOC(=O)Nc1nnc(/C=C/c2ccc(OC)cc2)s1 | active: -55.5%
COc1ccc(OCCCC(=O)NNC(=O)CCN2CCN(c3ccccc3)CC2)cc1 | inconclusive: -49.1%

SMILES | max response, negative = inhibition
Cc1ccc(C(=O)NCCCn2ccnc2)cc1[N+](=O)[O-] | inconclusive: -32.6%
COc1ccc(-c2csc(N(C)C(=O)c3ccco3)n2)cc1 | inactive: 7.61%
CCOC(=O)c1cnn(-c2cc(C)nc3c(-c4ccccc4)cnn23)c1N | inconclusive: -36.2%
Cc1ccc(N2C(=O)c3oc4ccccc4c(=O)c3C2c2cccc(O)c2)nc1 (stereo not given) | inconclusive: -41.2%
O=C(NCCCCc1ccccc1)c1cc([N+](=O)[O-])cc([N+](=O)[O-])c1 | inconclusive: -39.3%
Cc1ccc(NC(=S)NCc2ccccc2)c(C)c1 | inactive: -8.23%
Cc1ccc(O)c(CNc2ccccn2)c1 | inactive: -3.94%
CN1CCN(C(=S)Nc2cc([N+](=O)[O-])ccc2Cl)CC1 | inconclusive: -45.8%
Cc1ccsc1C(=O)C1CCCN(Cc2cc(F)ccc2-n2cccn2)C1 (stereo not given) | active: -61.7%
CC(=O)Nc1ccc(NC(=O)Oc2ccccc2)cc1 | inconclusive: -37.2%
O=C1CC(=O)N(c2cccc(F)c2)N1 | active: -50.8%
O=C(/C(=C\c1ccccc1)c1nc2ccccc2[nH]1)c1ccc(Cl)cc1 | active: -71.5%
CCCNC(=O)C1(C)CCCN(Cc2ccc(Oc3ccccc3)cc2)C1 (stereo not given) | inconclusive: -33%
COc1ccc(C(CNC(=O)C(C)(C)Oc2ccc(Cl)cc2)N2CCCC2)cc1 (stereo not given) | active: -114%
CN1CCN(C(=O)c2cc3sccc3n2CC(=O)c2ccccc2)CC1 | active: -61.8%
CCC(C)(C)n1nnnc1C(c1cc2cc(C)cc(C)c2[nH]c1=O)N1CCN(Cc2ccc3c(c2)OCO3)CC1 (stereo not given) | inconclusive: -32.8%
CN(C)CCNc1oc(COc2cccc(Cl)c2)nc1C#N | inconclusive: -45%
Cc1ccc(OCCCCN2CCc3ccccc3C2)cc1 | active: -100%
COc1cc2[nH]c3c(N4CCN(c5ccccn5)CC4)ncnc3c2cc1OC | inconclusive: -37.1%
CCn1c(=O)c2cc(C(=O)N(C)c3cc(C)ccc3OC)sc2c2ccccc21 | inconclusive: -32.2%
O=C(Nc1ccc(Cl)c(Cl)c1)Nc1cc(S(=O)(=O)N2CCOCC2)ccc1N1CCCC1 | inconclusive: -42.7%
CC(C)Cc1nc(N2CCN(C(=O)c3ccco3)CC2)c(C#N)c2c1CCC2 | inconclusive: -47%
CCOC(=O)c1c(NC(=O)c2ccco2)sc2c1CCCCC2 | inactive: -14%

SMILES | max response, negative = inhibition
CC(C)SCCCOc1ccc(C(C)(C)C)cc1 | inconclusive: -37.5%
Cc1ccc(OCCCNCCO)c(Br)c1 | active: -60.1%
CCC[n+]1c2ccccc2cc2ccccc21 | inconclusive: -41.5%
CCN(CC)CCOC(=O)c1ccc(N/C=C(/C#N)c2nc(-c3ccc(OC)cc3)cs2)cc1 | inactive: -17.5%
COc1cc(CNCCN(C)C)ccc1OCc1c(F)cccc1Cl | active: -51.3%
CC(C)CNC(=O)c1cc2nc3c(c(C(F)(F)F)n2n1)CCc1ccccc1-3 | inconclusive: -40.6%
CCCCn1c(N)c(N(CC(C)C)C(=O)Cn2c(=O)oc3ccccc32)c(=O)[nH]c1=O | inactive: 7.7%
COc1ccc(/C=C/C(=O)NC(=S)NNC(=O)Cc2cccs2)cc1 | inactive: -5.96%
Cc1ccc(NC(=O)CN2CCc3ccccc3C2)cc1F | active: -85.1%
Cc1ccc(NC(=O)c2oc3ccc(S(=O)(=O)N4CCOCC4)cc3c2C)c(C)c1 | inactive: 55.6%
COc1ccc(S(=O)(=O)N2CCCC2C(=O)Nc2ccc(O)cc2)cc1 (stereo not given) | inconclusive: -31.9%
CCCN(CCC)c1nc(-c2ccccn2)nc2ccccc12 | inconclusive: -41.9%
C[C@H](NC(=O)NCc1ccc(F)cc1)C(=O)O | inconclusive: -32.3%
Cc1ccccc1CN1CCN(CCCc2ccccc2)C(CCO)C1 (stereo not given) | active: -78.1%
O=C(Nc1ncc(Cc2cccc(Cl)c2Cl)s1)c1ccc([N+](=O)[O-])cc1 | inconclusive: -48.6%
COCCn1c(C)cc(C(=O)COC(=O)c2ccc(Br)o2)c1C | active: -81.7%
CCOc1ccc(-n2c(Cc3cc(=O)[nH]c(=O)[nH]3)nnc2SCC(=O)OC)cc1 | inconclusive: -30.4%
COc1cc(C(=O)Oc2cccc(/C=N/NC(=O)c3cc(C)[nH]n3)c2)cc(OC)c1OC | inactive: 80%
Cc1cc(C)nc(N/N=C/c2c(CO)cnc(C)c2O)n1 | inconclusive: -43.8%
CNC[C@H](CC1CCCCC1)NC[C@H](CO)NCCc1cccc(C(F)(F)F)c1 | active: -84%
COc1ccc(C(CNC(=O)c2oc3ccc(Br)cc3c2C)N2CCCCC2)cc1 (stereo not given) | active: -75.7%
CCc1nn(C(C)C(=O)N2CCc3ccccc3C2)c(=O)c2cc3occc3n12 (stereo not given) | inconclusive: -32.2%
OCCC1CN(Cc2cn[nH]c2C2CCCCC2)CCN1Cc1ccccc1 (stereo not given) | inconclusive: -37.2%

SMILES | max response, negative = inhibition
Cn1nccc1/C=C(/C#N)S(=O)(=O)c1ccccc1 | active: -55.6%
CCNc1nc(NCC)nc(SCCOC(=O)c2ccccc2)n1 | inactive: 32.7%
O=c1c(Br)c(N2CCCCC2)cnn1-c1ccccc1 | inconclusive: -48.1%
COCCNc1nc(NCCN2CCNC2=O)c2sc(-c3ccccc3)cc2n1 | inactive: -7.93%
CC(C)COC(=O)n1c(SCC(=O)N(C)C)nc2ccccc21 | inconclusive: -44.9%
O=C(Nc1nc2c(F)cccc2s1)c1ccc([N+](=O)[O-])o1 | inconclusive: -42.3%
Cn1c(=O)c(C(=O)NCCCc2ccccc2)c(O)c2ccccc21 | inactive: 33.1%
Cc1ccc(C(=O)N2CCN(CCNC(=O)C(=O)Nc3ccc(Cl)cc3)CC2)cc1 | active: -61.2%
O=c1[nH]cnc2scc(-c3ccccc3)c12 | inconclusive: -32.2%
Cc1c(C(=O)N2CCN(C(c3ccccc3)c3ccccc3)CC2)oc2ccccc12 | inconclusive: -31.2%
C/C(=N\NC(=O)c1ccc(Br)cc1)c1cccnc1 | inconclusive: -30.5%
O=C(Nc1ccc(N2CCCCC2)cc1)c1ccc2ccccc2n1 | inactive: -11.6%
CCN(CC)c1ccc(/C=N/n2c(-c3ccccc3Br)n[nH]c2=S)cc1 | active: -71%
COCCNC(=O)c1cc(-c2ccc(-c3ccccc3)cc2)nc2ccccc12 | inactive: 38%
COc1cc(CNn2cn[nH]c2=S)cc(Br)c1OCc1ccccc1F | inconclusive: -35.6%
O=P(c1ccccc1)(c1ccccc1)c1nc(-c2ccccc2)oc1N1CCOCC1 | inconclusive: -33.3%
Cn1c2ccc(F)cc2c2ncn(CCN3CCOCC3)c(=O)c21 | inactive: 15.9%
O=C(CN1CCN(c2ncccn2)CC1)N1CCCC1 | inactive: -4.39%
COc1cc2c(cc1OC)CN(CC(=O)Nc1ccc(C)c(C)c1)CC2 | inconclusive: -47.1%
COc1ccc(/C=N/NC(=O)c2ccc3c(c2)OCCO3)cc1[N+](=O)[O-] | inconclusive: -30.4%
COc1ccc(NC(=O)c2ccc(NC(=O)CN3CCN(c4ccccc4OC)CC3)cc2)cc1 | inconclusive: -36.7%

Compounds shown so far containing two or more sulfur atoms (2):
SMILES | max response, negative = inhibition
CN1CCc2c(sc3nc(SCC(N)=O)n(-c4ccc(Cl)cc4)c(=O)c23)C1 | inactive: -3.79%
COc1ccc(/C=C/C(=O)NC(=S)NNC(=O)Cc2cccs2)cc1 | inactive: -5.96%

3 structures from above, arranged by heavy-atom count, ascending:
SMILES | max response, negative = inhibition
O=c1[nH]cnc2scc(-c3ccccc3)c12 | inconclusive: -32.2%
CCNc1nc(NCC)nc(SCCOC(=O)c2ccccc2)n1 | inactive: 32.7%
COc1cc2c(cc1OC)CN(CC(=O)Nc1ccc(C)c(C)c1)CC2 | inconclusive: -47.1%
